This series concerns XhoI restriction endonuclease. The series can be described thus: binding assay. Conditions: optical-trap unzipping, dynamic force spectroscopy: f_beta 3.20 +/- 0.30 pN, ln(toff in s) 9.9 +/- 1.1, N=41; XhoI 4.6 nM, 50 mM Na phosphate pH 7.0, 50 mM …; purified recombinant protein.

The exact form of at least one protein or probe is not confirmed.

As for “AAACTCGAGAGA (double strand) [beta site (BsoBI/XhoI)]”, the binding result was “binds”.

Values taken from patent US20030108935, “Probing binding interactions between molecules and nucleic acids by unzipping a nucleic acid molecule double helix” (published 2003).
